Assay results: patent EP0938338B1, “CARRIER COMPOSITION FOR INFLUENCING THE TIGHT JUNCTION PERMEABILITY” (Ghyssaert, Joris Rosa Michael, priority 1996, dated 1998)

Assays:
[1] = tested on: junctions of the colonic mucosa; test: Blockade of the paracellular route by anti-diarrhoeal drugs (99mTc-EDTA transfer lumen to blood); details: in vivo
large intestine = test: Colon perfusion: secretory effect of rhein (water, sodium, K+) and its antagonism; details: in vivo

Structure (SMILES): CN1CC[C@]23c4c5ccc(O)c4O[C@H]2[C@@H](O)C=C[C@H]3[C@H]1C5 [morphine]
- absorption of 99mTc-EDTA complex from the colon [1]: retained nearly all the radioactive compound in the colon
- sodium absorption (large intestine): counteracted the inhibition of sodium absorption
